Results are given in words; binding and its absence hold for the method and conditions named. Binding seen in cells or lysates may run through a third protein. Here binding means that the protein was enriched with, or labelled near, the bait; the list need not be complete.
B1: endogenous ASPP1 of HEK293T cells (protein, UniProt Q96KQ4 1-1090)
chain: MMPMILTVFLSNNEQILTEVPITPETTCRDVVEFCKEPGEGSCHLAEVWRGNERPIPFDHMMYEHLQKWGPRREEVKFFLRHEDSPTENSEQGGRQTQEQRTQRNVINVPGEKRTENGVGNPRVELTLSELQDMAARQQQQIENQQQMLVAKEQRLHFLKQQERRQQQSISENEKLQKLKERVEAQENKLKKIRAMRGQVDYSKIMNGNLSAEIERFSAMFQEKKQEVQTAILRVDQLSQQLEDLKKGKLNGFQSYNGKLTGPAAVELKRLYQELQIRNQLNQEQNSKLQQQKELLNKRNMEVAMMDKRISELRERLYGKKIQLNRVNGTSSPQSPLSTSGRVAAVGPYIQVPSAGSFPVLGDPIKPQSLSIASNAAHGRSKSANDGNWPTLKQNSSSSVKPVQVAGADWKDPSVEGSVKQGTVSSQPVPFSALGPTEKPGIEIGKVPPPIPGVGKQLPPSYGTYPSPTPLGPGSTSSLERRKEGSLPRPSAGLPSRQRPTLLPATGSTPQPGSSQQIQQRISVPPSPTYPPAGPPAFPAGDSKPELPLTVAIRPFLADKGSRPQSPRKGPQTVNSSSIYSMYLQQATPPKNYQPAAHSALNKSVKAVYGKPVLPSGSTSPSPLPFLHGSLSTGTPQPQPPSESTEKEPEQDGPAAPADGSTVESLPRPLSPTKLTPIVHSPLRYQSDADLEALRRKLANAPRPLKKRSSITEPEGPGGPNIQKLLYQRFNTLAGGMEGTPFYQPSPSQDFMGTLADVDNGNTNANGNLEELPPAQPTAPLPAEPAPSSDANDNELPSPEPEELICPQTTHQTAEPAEDNNNNVATVPTTEQIPSPVAEAPSPGEEQVPPAPLPPASHPPATSTNKRTNLKKPNSERTGHGLRVRFNPLALLLDASLEGEFDLVQRIIYEVEDPSKPNDEGITPLHNAVCAGHHHIVKFLLDFGVNVNAADSDGWTPLHCAASCNSVHLCKQLVESGAAIFASTISDIETAADKCEEMEEGYIQCSQFLYGVQEKLGVMNKGVAYALWDYEAQNSDELSFHEGDALTILRRKDESETEWWWARLGDREGYVPKNLLGLYPRIKPRQRTLA
B2: endogenous iASPP of HEK293T cells (protein, UniProt Q8WUF5 1-828)
chain: MDSEAFQSARDFLDMNFQSLAMKHMDLKQMELDTAAAKVDELTKQLESLWSDSPAPPGPQAGPPSRPPRYSSSSIPEPFGSRGSPRKAATDGADTPFGRSESAPTLHPYSPLSPKGRPSSPRTPLYLQPDAYGSLDRATSPRPRAFDGAGSSLGRAPSPRPGPGPLRQQGPPTPFDFLGRAGSPRGSPLAEGPQAFFPERGPSPRPPATAYDAPASAFGSSLLGSGGSAFAPPLRAQDDLTLRRRPPKAWNESDLDVAYEKKPSQTASYERLDVFARPASPSLQLLPWRESSLDGLGGTGKDNLTSATLPRNYKVSPLASDRRSDAGSYRRSLGSAGPSGTLPRSWQPVSRIPMPPSSPQPRGAPRQRPIPLSMIFKLQNAFWEHGASRAMLPGSPLFTRAPPPKLQPQPQPQPQPQSQPQPQLPPQPQTQPQTPTPAPQHPQQTWPPVNEGPPKPPTELEPEPEIEGLLTPVLEAGDVDEGPVARPLSPTRLQPALPPEAQSVPELEEVARVLAEIPRPLKRRGSMEQAPAVALPPTHKKQYQQIISRLFHRHGGPGPGGPEPELSPITEGSEARAGPPAPAPPAPIPPPAPSQSSPPEQPQSMEMRSVLRKAGSPRKARRARLNPLVLLLDAALTGELEVVQQAVKEMNDPSQPNEEGITALHNAICGANYSIVDFLITAGANVNSPDSHGWTPLHCAASCNDTVICMALVQHGAAIFATTLSDGATAFEKCDPYREGYADCATYLADVEQSMGLMNSGAVYALWDYSAEFGDELSFREGESVTVLRRDGPEETDWWWAALHGQEGYVPRNYFGLFPRVKPQRSKV
B3: endogenous RASSF7 of HEK293T cells (protein, UniProt Q02833 1-373)
chain: MLLGLAAMELKVWVDGIQRVVCGVSEQTTCQEVVIALAQAIGQTGRFVLVQRLREKERQLLPQECPVGAQATCGQFASDVQFVLRRTGPSLAGRPSSDSCPPPERCLIRASLPVKPRAALGCEPRKTLTPEPAPSLSRPGPAAPVTPTPGCCTDLRGLELRVQRNAEELGHEAFWEQELRREQAREREGQARLQALSAATAEHAARLQALDAQARALEAELQLAAEAPGPPSPMASATERLHQDLAVQERQSAEVQGSLALVSRALEAAERALQAQAQELEELNRELRQCNLQQFIQQTGAALPPPPRPDRGPPGTQGPLPPAREESLLGAPSESHAGAQPRPRGGPHDAELLEVAAAPAPEWCPLAAQPQAL
B4: endogenous RASSF8 of HEK293T cells (protein, UniProt Q8NHQ8 1-419)
chain: MELKVWVDGVQRIVCGVTEVTTCQEVVIALAQAIGRTGRYTLIEKWRDTERHLAPHENPIISLNKWGQYASDVQLILRRTGPSLSERPTSDSVARIPERTLYRQSLPPLAKLRPQIDKSIKRREPKRKSLTFTGGAKGLMDIFGKGKETEFKQKVLNNCKTTADELKKLIRLQTEKLQSIEKQLESNEIEIRFWEQKYNSNLEEEIVRLEQKIKRNDVEIEEEEFWENELQIEQENEKQLKDQLQEIRQKITECENKLKDYLAQIRTMESGLEAEKLQREVQEAQVNEEEVKGKIGKVKGEIDIQGQQSLRLENGIKAVERSLGQATKRLQDKEQELEQLTKELRQVNLQQFIQQTGTKVTVLPAEPIEIEASHADIEREAPFQSGSLKRPGSSRQLPSNLRILQNPISSGFNPEGIYV

The chains behind the UniProt entries cited, without tags or fusion partners.
UniProt P62136: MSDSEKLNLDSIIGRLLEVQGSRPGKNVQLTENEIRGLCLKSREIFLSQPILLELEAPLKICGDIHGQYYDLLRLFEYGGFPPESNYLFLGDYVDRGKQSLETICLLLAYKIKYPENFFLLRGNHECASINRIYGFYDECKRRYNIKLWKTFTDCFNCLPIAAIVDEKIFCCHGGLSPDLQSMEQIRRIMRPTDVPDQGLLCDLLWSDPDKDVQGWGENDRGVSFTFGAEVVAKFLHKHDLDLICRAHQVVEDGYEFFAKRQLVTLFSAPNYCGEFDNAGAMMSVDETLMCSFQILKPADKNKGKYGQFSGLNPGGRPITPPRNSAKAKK
UniProt P62140: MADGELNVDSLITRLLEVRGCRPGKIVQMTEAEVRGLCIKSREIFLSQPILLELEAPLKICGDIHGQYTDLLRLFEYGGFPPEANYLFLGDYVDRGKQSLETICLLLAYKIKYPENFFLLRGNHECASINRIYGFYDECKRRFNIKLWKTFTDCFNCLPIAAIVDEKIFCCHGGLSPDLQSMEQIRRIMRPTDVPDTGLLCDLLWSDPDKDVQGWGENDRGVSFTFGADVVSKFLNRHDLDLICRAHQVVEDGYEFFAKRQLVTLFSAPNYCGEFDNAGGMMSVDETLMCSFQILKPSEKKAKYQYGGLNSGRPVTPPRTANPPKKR
UniProt P36873: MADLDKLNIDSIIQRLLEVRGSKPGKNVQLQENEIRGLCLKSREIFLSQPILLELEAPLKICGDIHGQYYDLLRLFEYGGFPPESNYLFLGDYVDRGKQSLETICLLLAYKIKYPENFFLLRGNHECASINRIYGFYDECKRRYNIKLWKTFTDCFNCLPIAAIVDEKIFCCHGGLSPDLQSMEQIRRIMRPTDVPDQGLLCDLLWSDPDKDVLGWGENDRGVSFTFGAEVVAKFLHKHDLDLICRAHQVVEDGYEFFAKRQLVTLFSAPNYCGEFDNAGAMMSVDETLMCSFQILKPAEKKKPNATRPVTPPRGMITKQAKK

Tests used:
Test in all cases: affinity purification with mass spectrometry; Strep-HA tagged bait stably expressed in HEK Flp-In 293 T-REx cells; Strep-Tactin sepharose, HNN lysis buffer (50 mM HEPES pH 7.5, 150 mM NaCl, 50 mM NaF, 0.5% Igepal CA-630), biotin elution; quantitative LC-MS/MS, three biological replicates
[1] = molecular target: Strep-HA tagged PP1α (human) (UniProt P62136)
[2] = molecular target: Strep-HA tagged PP1β (human) (UniProt P62140)
[3] = molecular target: Strep-HA tagged PP1γ1 (human) (UniProt P36873)

| Binder | binding [1] | binding [2] | binding [3] |
| --- | --- | --- | --- |
| B1 | binds | binds | binds |
| B2 | binds | binds | binds weakly |
| B3 | binds |  |  |
| B4 | binds |  |  |

Source: PMC6377682
